PubChem BioAssay AID1259254 – NCATS, 2017
Here is a random part of about 59,000 reagents. Of all reagents, about 1,550 (2.6%) got an active call. 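G2 share is only a proxy for re-replication; each gene was hit by three separate siRNAs, and active genes were retested.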 The raw values are shown without normalisation. Unmarked entries are inactive. The record does not give: the amount of reagent.

Aim: 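Finding genes that stop cells copying their DNA twice in one cycle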 (primary screen)
System: human HCT116 colorectal cancer cells
Reagent: single siRNA against human genes
Time to read-out: 3 days
Measured: 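Imaged Hoechst DNA stain sorts each cell into a cycle phase by DNA amount; per plate, G2 fraction set to 0% for non-targeting and 100% for GMNN siRNA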
Scale: G2 robust z-score and G2 cells, % of GMNN control: higher = more G2 cells, more excess DNA replication; raw share of cells in G2: higher = larger share of cells with G2 DNA content
Call rule: 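Active siRNAs have a G2 robust z of 5 or more median absolute deviations over the median, which in these data means about 38% or higher of GMNN control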

Gene,PubChem SID,G2 robust z-score,"G2 cells, % of GMNN control",raw share of cells in G2 (%)
CNN3-DT,SID160773336,-0.29,0.926,4.46
CNN3-DT,SID160773337,2.37,19.6,9.85
CNN3-DT,SID160773338,-0.384,0.266,3.27
AGFG2,SID160731087,1.17,11.2,9.96
AGFG2,SID160775306,2.03,17.2,11.3
AGFG2,SID160775309,-0.686,-1.86,3.52
PABIR3,SID160759724,-0.644,-1.56,3.04
PABIR3,SID160759725,0.975,9.82,6.25
PABIR3,SID160759726,0.608,7.24,5.05
CDK3,SID160740861,-0.105,2.23,6.34
CDK3,SID160740871,-0.851,-3.02,4.39
CDK3,SID160740881,-1.2,-5.45,2.1
ENKUR,SID160761323,-0.0616,2.53,4.5
ENKUR,SID160761324,-0.724,-2.13,2.4
ENKUR,SID160761325,-0.575,-1.08,2.85
ACOT11,SID160724338,2.3,19.1,10.2
ACOT11,SID160737481,1,10,10.7
ACOT11,SID160737482,5.65 (active),42.7,18.4
NENF,SID160739341,1.71,15,13
NENF,SID160739342,4.28,33.1,15.2
NENF,SID160739343,0.547,6.81,6.22
MYO3B,SID160757783,4.97,38,24.1
MYO3B,SID160757784,-0.265,1.1,5.11
MYO3B,SID160757785,0.68,7.75,7.96
TRNAU1AP,SID160731477,-0.326,0.677,4.62
TRNAU1AP,SID160742582,0.027,3.16,5.57
TRNAU1AP,SID160742583,-1.46,-7.27,3.24
KCNAB1,SID160719450,1.2,11.4,9.44
KCNAB1,SID160719451,1.22,11.5,8.68
KCNAB1,SID160719452,0.746,8.22,7.58
UBE2T,SID160739037,-0.809,-2.72,4.93
UBE2T,SID160739039,0.136,3.93,5.49
UBE2T,SID160739040,1.42,13,8.24
MED9,SID160742914,1.93,16.6,10.9
MED9,SID160742915,-1.15,-5.14,2.01
MED9,SID160742916,-1.25,-5.81,1.28
PDE6D,SID160714004,0.497,6.46,6.9
PDE6D,SID160714005,-0.945,-3.68,2.39
PDE6D,SID160714006,-0.228,1.36,4.71
CRB2,SID160763805,3.53,27.8,15.8
CRB2,SID160763806,-0.224,1.39,6.5
CRB2,SID160763807,-0.587,-1.16,3.86
LMBRD1,SID160744362,-0.238,1.29,5.02
LMBRD1,SID160744363,0.242,4.67,6.07
LMBRD1,SID160744364,2.87,23.1,10.5
OR2A5,SID160725323,-0.398,0.169,4.86
OR2A5,SID160766805,-1.28,-6.01,1.62
OR2A5,SID160766806,2.27,19,11
EBAG9,SID160721629,0.217,4.49,7.12
EBAG9,SID160721630,-0.514,-0.652,3.64
EBAG9,SID160735188,-1.2,-5.49,1.41
KRTAP4-5,SID160753161,0.553,6.86,6.99
KRTAP4-5,SID160753162,1.14,11,6.44
KRTAP4-5,SID160753163,2.45,20.2,9.33
CLCN2,SID160744160,0.0678,3.44,6.54
CLCN2,SID160744170,-1.14,-5.08,3.06
CLCN2,SID160744181,1.69,14.8,10.2
TBX6,SID160717757,-0.765,-2.42,3.76
TBX6,SID160717758,-0.998,-4.05,3.58
TBX6,SID160731813,1.69,14.9,9.09
LINC01020,SID160764362,0.981,9.87,7.38
LINC01020,SID160764363,-0.587,-1.16,2.75
LINC01020,SID160764364,0.292,5.02,6.21
KLK7,SID160715109,-1.28,-6.06,3.44
KLK7,SID160715110,-0.683,-1.84,4.26
KLK7,SID160715111,-0.275,1.03,4.29
SDR16C5,SID160760560,-0.252,1.19,6.53
SDR16C5,SID160760561,0.891,9.24,8.58
SDR16C5,SID160760562,-1,-4.1,3.2
OR4C45,SID160767485,-0.132,2.04,4.55
OR4C45,SID160767486,1.73,15.1,9.52
OR4C45,SID160767487,0.199,4.37,6.6
PRSS38,SID160764255,2.17,18.2,13.3
PRSS38,SID160764256,1.79,15.5,9.59
PRSS38,SID160764257,-0.734,-2.19,3.44
SIK1,SID160758907,3.66,28.7,14.5
SIK1,SID160758908,-1.19,-5.42,3.22
SIK1,SID160758909,-0.326,0.672,3.9
DHRS12,SID160731927,-0.612,-1.34,4.87
DHRS12,SID160749375,-0.192,1.62,4.78
DHRS12,SID160749376,-0.702,-1.97,4.06
USP25,SID160731042,3.36,26.6,14.8
USP25,SID160739143,0.554,6.87,7.34
USP25,SID160739144,0.336,5.33,5.9
RHBDF1,SID160747637,-1.14,-5.07,2.37
RHBDF1,SID160747638,1.04,10.3,9.21
RHBDF1,SID160747639,-0.905,-3.4,1.8

Already shown: an excerpt of the list.
Gene,PubChem SID,G2 robust z-score,"G2 cells, % of GMNN control",raw share of cells in G2 (%)
ACOT11,SID160724338,2.3,19.1,10.2
ACOT11,SID160737481,1,10,10.7
ACOT11,SID160737482,5.65 (active),42.7,18.4
NENF,SID160739341,1.71,15,13
NENF,SID160739342,4.28,33.1,15.2
NENF,SID160739343,0.547,6.81,6.22
MYO3B,SID160757783,4.97,38,24.1
MYO3B,SID160757784,-0.265,1.1,5.11
MYO3B,SID160757785,0.68,7.75,7.96
TRNAU1AP,SID160731477,-0.326,0.677,4.62
TRNAU1AP,SID160742582,0.027,3.16,5.57
